This series has as its system endometrial RNA transcript expression (DPP4, CNTNAP3, CNTN4, CXCL12, TNXB, CTSE, OLFM4, KRT5, KRT6A, IDO2). Kind of series: RNA-Seq assay of endometrial tissue mRNA expression before and after administration. Type of series: in vivo, human. As to the method:
Using an RNA-Seq assay, each subject's mRNA expression level of a variety of genes, including DPP4, CNTNAP3, CNTN4, CXCL12, TNXB, CTSE, OLFM4, KRT5, KRT6A, and IDO2, was then assessed to determine whether the expression of each gene increased, decreased, or underwent no significant change due to administration of the compound or placebo.

Regarding `CO/N=C1/C[C@@H](CO)N(C(=O)c2ccc(-c3ccccc3C)cc2)C1` [Compound (II), (3Z,5S)-5-(hydroxymethyl)-1-[(2′-methyl-1,1′-biphenyl-4-yl)carbonyl]pyrrolidin-3-one O-methyloxime], the “Log (Counts per Million)” value (CNTN4, single 1,800 mg dose) is 3.646; the “Log (Counts per Million)” value (CNTNAP3, single 1,800 mg dose) was −0.2486; the “Log (Counts per Million)” value (CTSE, single 1,800 mg dose) was 2.566; the “Log (Counts per Million)” value (CXCL12, single 1,800 mg dose) was found to be 5.586; the “Log (Counts per Million)” value (DPP4, single 1,800 mg dose) is 5.508; the “Log (Counts per Million)” value (IDO2, single 1,800 mg dose) is on record as 4.471. In addition, the “Log (Counts per Million)” value came to 3.252 (KRT5, single 1,800 mg dose); 1.033 (KRT6A, single 1,800 mg dose); 1.885 (OLFM4, single 1,800 mg dose); 7.143 (TNXB, single 1,800 mg dose).
